Data on 5 molecules can be found in publication PMC12019842.

Protein sequences, listed by entry. Tags and fused reporters are not part of them.
UniProt O54833: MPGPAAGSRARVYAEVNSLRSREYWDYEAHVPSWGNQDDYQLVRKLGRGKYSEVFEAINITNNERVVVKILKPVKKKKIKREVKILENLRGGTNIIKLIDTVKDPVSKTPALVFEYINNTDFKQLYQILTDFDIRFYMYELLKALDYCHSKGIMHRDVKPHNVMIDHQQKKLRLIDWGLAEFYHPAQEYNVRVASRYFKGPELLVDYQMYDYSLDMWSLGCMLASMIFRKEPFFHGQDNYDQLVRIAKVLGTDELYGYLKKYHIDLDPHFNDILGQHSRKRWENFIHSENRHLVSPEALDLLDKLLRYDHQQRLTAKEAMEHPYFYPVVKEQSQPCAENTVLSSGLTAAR
UniProt P50752: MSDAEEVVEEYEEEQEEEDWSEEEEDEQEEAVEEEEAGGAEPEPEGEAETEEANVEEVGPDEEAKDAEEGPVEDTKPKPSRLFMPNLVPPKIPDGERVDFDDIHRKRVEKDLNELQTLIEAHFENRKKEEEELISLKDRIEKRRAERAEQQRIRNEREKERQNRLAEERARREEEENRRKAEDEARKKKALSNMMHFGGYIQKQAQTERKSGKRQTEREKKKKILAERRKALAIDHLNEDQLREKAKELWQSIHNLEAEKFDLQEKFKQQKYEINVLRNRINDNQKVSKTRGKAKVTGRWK

The target in experiment [1] is casein kinase II subunit alpha (Csnk2a2) (mouse (endogenous in mouse heart)) (UniProt O54833). Description: affinity purification with mass spectrometry; Co-IP from frozen mouse heart homogenate (three mice) with anti-Troponin T-C (CT3) or anti-CSNK2A2 antibody, IgG as negative control; lysis buffer 10 mM Hepes, 10 mM potassium chloride, 0.1% Triton X-100, pH 7.4; antibody-antigen incubation 18 h at 4 °C; elute against unbound fraction and IgG elute by DIA-MS (FDR <0.05, log2FC > 1).

Experiment [2] has as its target cardiac troponin T (Tnnt2) (mouse (endogenous in mouse heart)) (UniProt P50752). The experiment is described as above.

Results are given in words; binding and its absence hold for the method and conditions named. In cells and extracts the contact can be indirect. These calls come from enrichment with a bait or labelling near it, and not all partners need be listed.

B1: Synpo2 (protein, UniProt Q91YE8 1-1087)
chain: MGTGDFICISMTGGAPWGFRLQGGKEEQQPLQVAKIRSQSKASGSGLREGDEVVSINGNPCADLTYPEVIKLMEGITDSLHLLVKRPSSGTSETLDSESETTNHQHLTHEGPMESTTLQIQQATETQSEDFFLAPVQTKVPLTEDQSNAWGYAECPKEEQAPPMLGSQEGHLVEEVILRQKAEAGQPGHVVELQLSLSKERHQCTSGPIVTLQGNDKSTSPDPDWSSQLERTVHINSIPAPEKADTSLTSSTSSGRELRVIQGRDPGGAGLPQVEVILDCSDRLKAEECRLQTGRGCVASPVEGGRSEAPPSLVSFAVSSEGTEHGEDQRSGKDQSRPHKHRARHARLRRSESLSEKQVKEAKSKCKSIALLLTDAPNPNSKGVLMFKKRRRRARKYTLVSYGTGELEREEEEEEDQEAGDKDEISEVAFLGTSESEVDEELLSDVDDNTQVVNFDWDSGLVDIEKRLNRGDKMEMLPDTTGKGALMFAKRRERMEQFTAQNEEEKTGGMAGGGPDALQTDGLRTMTSYQRKEESVRMQSSVSESSFQMGRSLASVPQQNGFSGVSETAGAQRMFPMNRTAKPFLGSMNQPAAPFSPTRSVTSPISDFPAPPPYSAVSPPPEAFSRGVSSPVAGPAQPPPWPQPAPWSQPAFYDSSEQIASRDERIAVPAKRTGILQEAKRRGTTKPMFTFKETKVSPNPELLSLLQNAEGKRGTGGDSGPEEDYLSLGAEACNFMQSSAKQKTPPPVAPKPAVKSPSSSQPVAPVSPVWSPGVAPAQRPAFSTSNPPNPPQVTAVSSIKIAQPAAPPARPASALNLAGPFKGPQAVVVSHNYTPKPSAPTPLVNAAPAGAGGPSNELPGMSGKGAQLFAKRQSRMEKYVVDSDTVQAHTVRAQSPTPSLPASWKYSSNVRAPPPVAYNPIHSPSYPLAAIKSQPPGAQASKTSKKKGKKPLNTLDVMKHQPYQLNASLFTFQPPDSKDGLPQKSTVKVSSAPAMKQALPPRQANVGSPTNAQASSVYSVPAYTSQPNFFAAEATSPVSASPVPVSVPTSPKQESTSTSYFVAPRPKFSAKKSGVTVQVWKPSVVEE
B1: the binding entry in experiment [1] is “binds”.

B2: Myom2 (protein, UniProt Q14BI5 1-1463)
chain: MSLVAVPFYQKRHKHFDQSYRNIQTRYLLDQYALKKQATTQSSSQRSLTERSSSKRASSQSSAGAMTCRLCAKRVSASEEEEVENENRYRSQAASYGEAKRQRFLSELAQLEENVHLARSQARDKLDKYFMEQTVEDNLAWERHSFEDRMSRAPEILVRLRSHTIWERMSVRLCFTVQGFPTPVVQWYKDGSLICQAGEPGKYRIESRYGVHTLEINRANFEDTATYSAVATNSHGQVSTNAAVVVRRYRGEEEPFHSVGLPIGLPLSSVIPYTHFDVQFLEKFGVTFRREGETVTLKCTLLVTPDLKRVQPRAEWYRDDVLLKESKWTKMFFGEGQASLSFSHLNKDDEGLYTLRIVSRGGVSDHSAFMFVRDADPLVTGAPGAPMDLQCHDANRDYVIVTWKPPNTTTESPVIGYFIDKCEVGTNNWVQCNDAPVKICKYPVTGLFEGRSYVFRVRAVNNAGISRPSRISDAVAALDPVDLRRLQAIHLEGEKEIVIYQDDLEGDVQIPGPPTNVQASEVSRNYVVLSWDPPSPRGKDPLMYFIEKSAVGSGSWQRVNAQTAVRSPRYAVFDLAEGKSYVFRVLSANKHGLSDPSEITPPIQAQDMIVVPSAPGRVLASRNTKTSVVVQWDRPKHEEDLLGYYVDCCVAGTNMWEPCNHKPIGYNRFVVHGLTTGEQYIFRVKAVNAVGTSENSQESEVIKVQAALTVPSHPYGITLLNCDGHSMTLGWKVPKFSGGSAIIGYYLDKREVHHKNWHEVNSSPVKERILTVEGLTEGSLYEFKIAATNLAGIGQPSDPSEHFKCEAWTDPEPGPAYDLTFCEVRDTSLVILWKAPVYSGSSPVSGYFVDFKEEDSGEWKTTSEAATPNRYLKVCDLQQGKTYVFRIRAVNASGPGKPSDTSEPVLVEARPGTKEISAGVDEEGNIYLGFDCQEMTDASQFTWCKAYEEIADEERFEVHTEGDHSKLYFKNPDKEDLGTYSVSVSDTDGVSSSFVLDEEELERLMALSNEIKNPTIPLKSELAYEIFDKGQVRFWLQAEHLSPDASFRFIINDREVSDSDTHRIKCDRSTGMIEMVMDRFTIENEGTYTVQIQDGKAKNQSSLVLIGDAFKAVLEEAEFQRKEFLRKQGPHFAEYLHWDVTEECEVRLVCKVANTKRETVFKWLKDDVLYETETPPDLEKGVCELLIPKLSKKDHGEYKATLKDDRGQDVSVLEVGGKVYEDMILAMSRVCGASASPLKVLCTPEGIRLQCFMKYFTEEMKVSWYHKEAKISSSEHMRIGGSEEMAWLQICEPTEKDKGKYTFEIFDGKDSHQRSLDLSGQAFDEAYAEFQQLKAAAFAEKNRGKVIGGLPDVVTIMEGKTLNLTCTVFGNPDPEVVWFKNDKDIELSEHFLVKMEQSKYVSLTIQGVTAEDSGKYSINVKNKYGGEKIDVTVSVYKHGEKIPDISPPQQAKPKLIPASTSSD
As to B2, in experiment [2], the binding result was “binds”.

B3: Lmnb2 (protein, UniProt P21619 1-596)
chain: MASLPPHAGPATPLSPTRLSRLQEKEELRELNDRLAHYIDRVRALELENDRLLLRISEKEEVTTREVSGIKTLYESELADARRVLDETARERARLQIEIGKVQAELEEARKSAKKREGELTVAQGRVKDLESLFHRSEAELATALSDKQGLETEVAELRAQLAKAEDGHAVAKKQLEKETLMRVDLENRCQSLQEELAFSKSVFEEEVRETRRRHERRLVEVDSSRQQEYDFKMAQALEDLRSQHDEQVRLYRVELEQTYQAKLDNAKLLSDQNDKAAHAAREELKEARMRVESLSYQLLGLQKQASAAENHIHELEEALAGERDKFRKMLDAKEQEMTEVRDAMQQQLAEYQELLDIKLALDMEISAYRKLLEGEEERLKLSPSPSSRITISRATSSSSSSSGVGMSVGQGRGKRRRLETEDTSGSPSRASRVSSGSRLAQQTVATGVVNIDEVDPEGRFVRLKNSSDKDQSLGNWRIKRQVLEGEDIAYKFTPKYVLRAGQTVTVWAAGAGATHSPPSTLVWKSQTNWGPGESFRTALVSADGEEVAVKAAKHSSVQGRENGEEEEEEEAEFGEEDLFHQQGDPRTTSRGCRLM
Turning to B3, the binding entry in experiment [1] was “binds”.

B4: H1-1 (protein, UniProt P43275 1-213)
chain: MSETAPVAQAASTATEKPAAAKKTKKPAKAAAPRKKPAGPSVSELIVQAVSSSKERSGVSLAALKKSLAAAGYDVEKNNSRIKLGLKSLVNKGTLVQTKGTGAAGSFKLNKKAESKAITTKVSVKAKASGAAKKPKKTAGAAAKKTVKTPKKPKKPAVSKKTSKSPKKPKVVKAKKVAKSPAKAKAVKPKASKAKVTKPKTPAKPKKAAPKKK
Regarding B4, in experiment [1], the binding entry was “binds”.

B5: Ablim2 (protein, UniProt Q8BL65 1-612)
chain: MSAVSQPQAAHAPLEKPASTAILCNTCGNVCKGEVLRVQNKYFHIRCFVCKACGCDLAEGGFFVRQGEHICTRDYQRLYGTRCFSCDRFIEGEVVSALGKTYHPDCFVCAVCRLPFPPGDRVTFNGKECMCQKCSPPTLLGNSAHVAQGLRSCGGCGLEIKNGQALVALDKHWHLGCFKCKTCGKLLNAEYISKDGLPYCEADYHSKFGIRCDGCEKYITGRVLEAGEKHYHPSCALCVRCGQMFSEGEEMYLQGSSIWHPACRQAARTEDKSKETRTSSESIVSVPASSTSGSPSRVIYAKLGDEILDYRDLAALPKNKAIYNIDRPDMISYSPYISHSAVGDRQSYGEGDQDDRSYKQCRTSSPSSAGSVSLGHYTPTSRSPQHYSRPGSESGRSTPSLSVHSDSRPPSSTYQQAPRHFHVPDTGVKDNIYRKPPIYKQHAARRLDVEDSSFDQDSRKKTTWLLLKGDADTRTNSPDLDSQSLSLSSGTDQEPLQRMAGDSLYSRFPYSKPDTLPGPRKDGLDLRNANLAPCGADPDASWGTREYKIYPYDSLIVTNRIRVKLPKDVDRTRLERHLSPEEFQEVFGMSIEEFDRLALWKRNDLKKKALLF
As for B5, the binding entry in experiment [1] was “binds”.
